Measurements reported in PubChem BioAssay AID493014 (National Center for Advancing Translational Sciences (NCATS), 2011).
The list shows a part of the results. Shown are side measurements of this screen, not its main read-out; they come without a call. Most of these compounds were active or inconclusive in the main read-out, so they are no random draw. The note in brackets gives the kind of curve behind each potency; many fits are weak.

Experiment: qHTS Assay to Find Inhibitors of Chronic Active B-Cell Receptor Signaling
Details: ABC-DLBCL IkBa-CBG/CBR reporter, luminescence ratio (green luciferase fused to IkBa over red control in TMD8 lymphoma cells), 4 h
How it was run: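 Compounds up to 46 uM were incubated four hours with TMD8 cells whose green CBG68 luciferase is fused to IkappaBalpha; red CBR luminescence normalised the signal, and concentration-effect curves were fitted to fusion, red and ratio data.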

[1] = measured here: CBR red luminescence, cell number
[2] = measured here: IkBa-CBG green luminescence

Structure (SMILES) | AC50 [1] | AC50 [2]
CCOC(=O)c1sc(NC(=O)CN2C(=O)NC3(CC(C)CC(C)(C)C3)C2=O)cc1C (centres undefined) | 2.31 µM [falling, full curve] | 
CN1CCN(c2ccc(Nc3ccnc4cc(Cl)ccc34)cc2)CC1 | 11.2 µM [falling, single point] | 
CCc1cc(SC#N)cc(CC)c1NC(=O)CCl | 29.1 µM [falling, single point] | 4.11 µM [falling, single point]
C/C(=N/NC(=O)c1cc(C)[nH]n1)c1ccncc1 | 35.5 µM [falling, single point] | 
COc1ccc(CNC(=O)COC(=O)CN2C(=O)C3CC=CCC3C2=O)cc1 (centres undefined) | 29.1 µM [rising, single point] | 
COc1ccc(NS(=O)(=O)c2ccc3nc(COc4cccc5ccccc45)[nH]c3c2)cc1 | 29.1 µM [falling, single point] | 
CNC(=S)N/N=C/c1cc(Br)cc(Br)c1O | 0.82 µM [falling, full curve, poor fit] | 
CCOC(=O)C1CCN(C(=O)Cc2cccs2)CC1 | 3.66 µM [falling, single point] | 
CCOc1ccc(NC(=O)Nc2cc(C)ccc2OC)cc1 | 16.4 µM [rising, partial curve, poor fit] | 
Cc1nc(N2CCN(c3ccccc3)CC2)nc2c1C(=O)CC(c1ccccc1)C2 (centres undefined) | 12.6 µM [rising, single point] | 
O=C(NCC(c1ccco1)N1CCOCC1)c1ccc(F)cc1 (centres undefined) | 2.91 µM [falling, partial curve, poor fit] | 
Cc1cccc(C)c1OCCOC(=O)c1n[nH]c2ccccc12 | 25.1 µM [rising, single point] | 
O=C(Nc1cccc(S(=O)(=O)N2CCCC2)c1)c1ccc2c(c1)OCO2 |  | 18.4 µM [rising, partial curve, poor fit]
CCCC(=O)Nc1cc(-c2nn(C)c(=O)c3ccccc23)ccc1N1CCOCC1 | 4.61 µM [rising, partial curve, poor fit] | 
CC(=O)c1[nH]c(C)c(C(C)=O)c1C | 11.2 µM [falling, single point] | 
O=C(COC(=O)CCc1ccccc1)Nc1cc([N+](=O)[O-])ccc1F | 15.8 µM [falling, single point] | 
Cn1nc([N+](=O)[O-])nc1Sc1nnnn1-c1cccc(C(=O)O)c1 | 6.31 µM [falling, single point] | 
O=C(NC(=S)Nc1cccc(Cl)c1Cl)C1CC1 | 22.4 µM [falling, single point] | 
Cc1ccc2[nH]c(=O)c3cc(C(=O)N4CCN(C(=O)c5ccco5)CC4)sc3c2c1 | 6.51 µM [rising, single point] | 
C(=N\NC1=Nc2cccc3cccc1c23)/c1ccccn1 | 7.08 µM [falling, partial curve, poor fit] | 3.55 µM [falling, single point]
COc1ccc(C2=CC(c3cc(Br)ccc3F)n3c(nc4ccccc43)N2)cc1 (centres undefined) | 3.16 µM [falling, full curve, poor fit] | 
O=C(Nc1ccc(N2CCCCC2)cc1)c1ccccn1 | 0.794 µM [falling, full curve] | 

Structure (SMILES) | AC50 [1] | AC50 [2]
CCC1CCCCN1C(=O)Nc1cccc(NC(=O)N2CCCCC2CC)c1 (centres undefined) | 9.2 µM [falling, partial curve] | 
COc1ccc(-c2cc(C(=O)NCc3cn(C)nc3C)c3ccccc3n2)cc1OC | 10.3 µM [rising, partial curve] | 
Cc1ccc2nc(SCC3CCCCO3)[nH]c2c1 (centres undefined) | 0.891 µM [rising, full curve] | 
O=C(CN1CCCCC1)Nc1ccccc1-c1ccccc1 | 20.6 µM [falling, single point] | 
O=C(/C=C/c1ccccc1)NCC1(c2ccccc2)CCOCC1 | 1.58 µM [rising, partial curve, poor fit] | 
Cc1cc(NC(=O)CSc2nc3ccccc3[nH]2)no1 | 5.17 µM [falling, full curve] | 
COc1cc(NC(=O)/C=C/c2ccccc2[N+](=O)[O-])cc(OC)c1 | 16.4 µM [falling, single point] | 
O=C(CSc1cn(CCNC(=O)c2ccccc2)c2ccccc12)NCc1ccco1 | 10.3 µM [falling, single point] | 
CCCCOC(=O)c1cc(=O)[nH]c2ccccc12 | 0.651 µM [rising, partial curve, poor fit] | 
C/C(Cl)=C\Cn1c(O)c(N=NC(N)=S)c2ccccc21 |  | 7.08 µM [falling, partial curve, poor fit]
COc1ccc2ccccc2c1CN1CCN(C(=O)c2ccco2)CC1 | 5.62 µM [rising, full curve, poor fit] | 
CCCc1cc(=O)oc2c(C)c(O[C@@H]3O[C@H](CO)[C@@H](O)[C@H](O)[C@H]3O)ccc12 | 35.5 µM [falling, single point] | 
O=C(CSc1nnc(CCCO)n1-c1ccccc1)NCCc1ccccc1 | 0.731 µM [falling, full curve, poor fit] | 
CC12CCC(C(=O)NCc3ccccc3)(OC1=O)C2(C)C (centres undefined) | 29.1 µM [rising, single point] | 
COc1ccc(/C=N/NC(=O)c2sc(C)nc2C)cc1 | 7.94 µM [falling, partial curve] | 
CCOC(=S)SCC(=O)N1CCc2cc(OC)c(OC)cc2C1C1C(=O)CC(C)(C)CC1=O (centres undefined) | 29.1 µM [falling, single point] | 
O=C(COC(=O)C1=COCCO1)Nc1cc(Cl)c(Cl)cc1Cl | 0.651 µM [rising, full curve, poor fit] | 
COCC(=O)OCC(=O)Nc1cc(C(C)(C)C)nn1-c1ccccc1 | 29.1 µM [falling, partial curve, poor fit] | 
NS(=O)(=O)c1ccc2nc(NC(=O)Nc3ccc(F)cc3)sc2c1 | 22.4 µM [falling, single point] | 
CC1CC(C)CN(CCCNC(=O)Cn2ncn3cccc3c2=O)C1 (centres undefined) | 11.6 µM [rising, partial curve, poor fit] | 
CC(=O)c1ccc(NC(=O)C(C)N(C)CC(=O)Nc2ccccc2Cl)cc1 (centres undefined) | 14.1 µM [rising, partial curve, poor fit] | 
Cc1cc(C)c(C#N)c(SCC(O)COc2ccc(Br)cc2)n1 (centres undefined) | 7.08 µM [rising, full curve, poor fit] | 

Not a retest: an excerpt of the list.
Structure (SMILES) | AC50 [1] | AC50 [2]
Cc1cc(NC(=O)CSc2nc3ccccc3[nH]2)no1 | 5.17 µM [falling, full curve] | 
COc1cc(NC(=O)/C=C/c2ccccc2[N+](=O)[O-])cc(OC)c1 | 16.4 µM [falling, single point] | 
O=C(CSc1cn(CCNC(=O)c2ccccc2)c2ccccc12)NCc1ccco1 | 10.3 µM [falling, single point] | 
CCCCOC(=O)c1cc(=O)[nH]c2ccccc12 | 0.651 µM [rising, partial curve, poor fit] | 
C/C(Cl)=C\Cn1c(O)c(N=NC(N)=S)c2ccccc21 |  | 7.08 µM [falling, partial curve, poor fit]
COc1ccc2ccccc2c1CN1CCN(C(=O)c2ccco2)CC1 | 5.62 µM [rising, full curve, poor fit] | 
CCCc1cc(=O)oc2c(C)c(O[C@@H]3O[C@H](CO)[C@@H](O)[C@H](O)[C@H]3O)ccc12 | 35.5 µM [falling, single point] | 
O=C(CSc1nnc(CCCO)n1-c1ccccc1)NCCc1ccccc1 | 0.731 µM [falling, full curve, poor fit] | 
CC12CCC(C(=O)NCc3ccccc3)(OC1=O)C2(C)C (centres undefined) | 29.1 µM [rising, single point] | 
COc1ccc(/C=N/NC(=O)c2sc(C)nc2C)cc1 | 7.94 µM [falling, partial curve] | 
CCOC(=S)SCC(=O)N1CCc2cc(OC)c(OC)cc2C1C1C(=O)CC(C)(C)CC1=O (centres undefined) | 29.1 µM [falling, single point] | 
O=C(COC(=O)C1=COCCO1)Nc1cc(Cl)c(Cl)cc1Cl | 0.651 µM [rising, full curve, poor fit] | 
COCC(=O)OCC(=O)Nc1cc(C(C)(C)C)nn1-c1ccccc1 | 29.1 µM [falling, partial curve, poor fit] | 
NS(=O)(=O)c1ccc2nc(NC(=O)Nc3ccc(F)cc3)sc2c1 | 22.4 µM [falling, single point] | 

Continued:

Structure (SMILES) | AC50 [1] | AC50 [2]
C/C(=N\NC(=O)c1c(Cl)c(C)nn1C)c1ccc(NC(=O)c2ccncc2)cc1 | 29.1 µM [falling, single point] | 6.51 µM [falling, partial curve, poor fit]
Fc1ccc(CSc2nnc(-c3cccs3)o2)cc1 | 0.891 µM [rising, partial curve, poor fit] | 
C=CCC(C)(NCc1ccccc1)c1ccc(C)cc1 (centres undefined) | 2.06 µM [rising, full curve, poor fit] | 
COc1cc(C2CC(=O)Nc3ccccc3S2)cc(OC)c1OC (centres undefined) | 0.0058 µM [rising, full curve, poor fit] | 
CCc1ccc(NC(=O)CN(C)S(=O)(=O)c2ccc3[nH]c(=O)oc3c2)cc1 | 8.91 µM [rising, partial curve, poor fit] | 
COc1ccc(C(=O)NNC(=O)c2cccc(F)c2)cc1 | 3.55 µM [falling, partial curve] | 
CSc1ccc(/C=C/C(=O)NC(=O)c2ccccc2O)cc1 | 7.08 µM [falling, full curve] | 
COc1ccc(CC(=O)Nc2cccc(C(=O)NN3C(=O)c4ccccc4C3=O)c2C)cc1 | 29.1 µM [rising, partial curve, poor fit] | 
C=CCOc1ccc(/C=N\NC(N)=S)cc1 | 7.08 µM [falling, partial curve, poor fit] | 
CCOc1cc(/C=N/N=C/c2ccc(O)c(OCC)c2)ccc1O | 5.62 µM [rising, single point] | 
Cc1cc(C(=O)N/N=C/c2cccc([N+](=O)[O-])c2)c(C)n1-c1ccccc1 | 11.6 µM [rising, partial curve] | 
C/C(CC(=O)Nc1cccc2c1CCCC2)=N\NC(=O)c1ccccc1N | 15.8 µM [falling, partial curve] | 
CC(/C=C/c1ccccc1)=N\NC(=O)CSc1ccccn1 | 4.11 µM [rising, single point] | 
COc1ccc(-c2cc(C(=O)NN)[nH]n2)cc1 | 18.4 µM [rising, partial curve] | 29.1 µM [falling, single point]
S=C(NCCc1ccccn1)NC1CC2CCC1C2 (centres undefined) | 2.51 µM [rising, partial curve] | 
O=C(c1ccccc1)c1c[nH]c2ccccc12 | 2.51 µM [rising, full curve, poor fit] | 
CC(CC(=O)c1cccs1)CC(=O)c1cccs1 | 3.26 µM [rising, full curve, poor fit] | 
O=C(NC1CC2CCCC(C1)N2C(=O)Nc1ccccc1)c1ccncc1 (centres undefined) | 29.1 µM [falling, single point] | 25.9 µM [rising, partial curve, poor fit]
Cc1ncc(CN2CCC(CO)(CCc3ccccc3)CC2)s1 | 25.1 µM [falling, partial curve, poor fit] | 
Nc1nc(-n2cnnc2)nn1-c1ccccc1 | 0.517 µM [falling, full curve, poor fit] | 
